# Measured values from PubChem BioAssay AID624297 (National Center for Advancing Translational Sciences (NCATS), 2012).
# Among all 340,000 compounds or so, about 6,200 (1.8%) were called active. This list was built around the results that the source calls inconclusive (neither active nor inactive); the mix of calls is not that of the screen. Calls follow the shape of the dose curve; as a rule, active = well fitted activation curve with a large enough effect; inconclusive = small, poorly fitted or top-dose-only effect; inactive = no such curve, though single readings can be large or run the other way. Potencies of inconclusive entries are doubtful fits and often do not repeat.
# Experiment: A quantitative high throughput screen for small molecules that induce DNA re-replication in SW480 colon adenocarcinoma cells. Also: nearly all actives have a fitted effect of over 55% in size. As to re-replication activation: % of control where 0% means no effect.
# Settings: Hoechst DNA content imaging, 48 h; re-replication activation: at 46.1 µM (top of the series) unless noted
# In short: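 First, 250 cells per well were seeded. Next, compound or vehicle (23 nL) was pinned in, plates sat 48 hr at 37 C. Finally Hoechst was added for 40 min before fluorescence scanning.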
# Potency is read from the fitted curve at half-maximal effect.
SMILES,Potency,re-replication activation
COc1ccc(/C(C)=N/Nc2nc(C)cc(-c3ccccc3)n2)cc1,"inconclusive: 4.11 µM [activator, single point]",–
CCn1c(SCc2nc(-c3cccs3)no2)nnc1-c1c[nH]c2ccccc12,"inconclusive: 18.4 µM [activator, single point]",–
Cc1ccc(C)c(-c2nnc(NC(=O)CS(=O)(=O)c3ccccc3)o2)c1,"inconclusive: 0.0046 µM [activator, full curve, poor fit]",–
COc1ccc(OC)c(/C=C2\S/C(=N/NC(=O)c3ccc4ccccc4c3)NC2=O)c1,inactive,–
CC(C)OCCCn1c(=S)[nH]c2cc3c(cc2c1=O)OCO3,inactive,–
O=Cc1ccccc1OCCOc1ccccc1C=O,"inconclusive: 23.1 µM [activator, partial curve, poor fit]",–
Cc1ccc(OCC(=O)Nc2ccc(F)cc2)cc1C,inactive,–
CCCCCCn1c(O)c(/C=C2\C=NN=C2c2ccccc2)sc1=S,"inconclusive: 32.6 µM [activator, partial curve, poor fit]",–
Cc1ccc(N(CC(=O)Nc2ccccc2-c2ccccc2)S(=O)(=O)c2ccccc2)cc1,inactive,–
COC(=O)c1sccc1NC(=O)c1c(F)c(F)c(F)c(F)c1F,inactive,–
Cc1cc(C)c2c(N)c(C(=O)c3ccc(Cl)c(Cl)c3)sc2n1,inactive,–
COc1cc(C=c2c3ccccc3n3c2cc(-c2ccccc2)[n+]3C)cc(OC)c1OC,"inconclusive: 18.4 µM [activator, partial curve, poor fit]",–
O=C1CCCN1c1ccc(S(=O)(=O)NCc2ccc(F)cc2)cc1,"inconclusive: 29.1 µM [activator, single point]",–
Cc1nn(CC(C)C)c2sc(C(=O)NC3CC(C)(C)NC(C)(C)C3)cc12,"inconclusive: 29.1 µM [activator, single point]",–
CCN(CC(=O)Nc1ccc(NC(C)=O)cc1)C(=O)CN1C(=O)C2CCCCC2C1=O (stereo not given),"inconclusive: 0.013 µM [activator, full curve, poor fit]",–
CCOC(=O)/C(=C/Nc1ccc(F)cc1)[N+](=O)[O-],inactive,–
O=C(Nc1ccc(N2CCN(C(=O)c3ccco3)CC2)c(Cl)c1)c1c(F)c(F)c(F)c(F)c1F,"inconclusive: 20.6 µM [activator, partial curve, poor fit]",–
COc1cc(-c2nc3ccc(C)cn3c2NCc2ccccc2)ccc1SC1CCCCC1,"inconclusive: 0.92 µM [activator, full curve]",–
CCOC(=O)C1CCN(C(=O)c2ccc(S(=O)(=O)Nc3ccccc3Cl)cc2)CC1,inactive,–
O=C(NNc1ccccc1)C(=O)N1CCCCC1,"inconclusive: 6.51 µM [activator, single point]",–
Cc1[nH]c2ccccc2c1/C=N/NC(N)=S,inactive,–
COc1ccccc1/C=N/Nc1cc(N(C)C)nc(N(C)C)n1,"inconclusive: 29.1 µM [activator, single point]",–
O=C(Oc1cc(=O)oc2ccccc12)c1ccccc1,active: 4.11 µM,–
NS(=O)(=O)c1ccc(NC(=S)NC(=O)c2ccc(-c3ccccc3)cc2)cc1,inactive,–

# 5 compounds already listed, sorted by number of heavy atoms, falling.
SMILES,Potency,re-replication activation
O=C(Nc1ccc(N2CCN(C(=O)c3ccco3)CC2)c(Cl)c1)c1c(F)c(F)c(F)c(F)c1F,"inconclusive: 20.6 µM [activator, partial curve, poor fit]",–
Cc1ccc(C)c(-c2nnc(NC(=O)CS(=O)(=O)c3ccccc3)o2)c1,"inconclusive: 0.0046 µM [activator, full curve, poor fit]",–
CCCCCCn1c(O)c(/C=C2\C=NN=C2c2ccccc2)sc1=S,"inconclusive: 32.6 µM [activator, partial curve, poor fit]",–
COC(=O)c1sccc1NC(=O)c1c(F)c(F)c(F)c(F)c1F,inactive,–
Cc1[nH]c2ccccc2c1/C=N/NC(N)=S,inactive,–

# Further results.

SMILES,Potency,re-replication activation
O=C(COc1ccc2ccccc2c1Br)Nc1ccncc1,"inconclusive: 29.1 µM [activator, single point]",–
COc1cc(/C=C2\SC(=S)N(NC(=O)c3ccccc3O)C2=O)ccc1O,"inconclusive: 29.1 µM [activator, single point]",–
CCCN(CCC)CCCNC(=O)Cn1cnc2sc(C)c(S(=O)(=O)N3CCOCC3)c2c1=O,inactive,–
CCC(C)[C@H](NC(=O)NC1CCN(Cc2ccccc2)CC1)C(=O)OC (stereo not given in full),inactive,–
CCCn1c(NC(=O)c2cccc(C)c2C)nc2ccccc21,"inconclusive: 20.6 µM [activator, single point]",–
O=C(Nc1nc2ccccc2[nH]1)c1ccc(OC(F)F)cc1,"inconclusive: 10 µM [activator, partial curve, poor fit]",–
CC[C@H](C)[C@H]1CNC(=O)C(=O)N1CC1CCN(CCc2ccccc2)CC1,inactive,–
CC(=O)/C(C#N)=C1\NC(=O)C(Cc2cc(Cl)ccc2Cl)S1 (stereo not given),inactive,–
CCOC(=O)C1CCN(C(=O)Nc2cc(Cl)cc(Cl)c2)CC1,inactive,–
COc1ccc(CNC(=O)CN2C(=O)NC(c3ccccc3)(c3ccccc3)C2=O)cc1,inactive,–
Cc1c(O[C@@H]2O[C@H](CO)[C@@H](O)[C@H](O)[C@H]2O)c(CO)c(O[C@@H]2O[C@H](CO)[C@@H](O)[C@H](O)[C@H]2O)c2c1O[C@@H](c1ccccc1)C[C@@H]2O,"inconclusive: 2.31 µM [activator, partial curve, poor fit]",–
COc1ccc(OC)c(/C=N/Nc2nncn2/N=C/c2cc(OC)ccc2OC)c1,"inconclusive: 23.1 µM [activator, single point]",–
Cc1ccc(Nc2c(-c3ccco3)nc3ccccn23)cc1,inactive,–
CCc1ccc(OCCn2cccn2)cc1,inactive,–
CCc1nc2cc3sc(CC)nc3cc2s1,"inconclusive: 0.0065 µM [activator, full curve, poor fit]",–
CC(C)(C)n1nnnc1C(c1ccc2ncccc2c1)N1CCC(O)CC1 (stereo not given),"inconclusive: 3.26 µM [activator, single point]",–
Cc1ccc(-c2cc(-c3ccc(F)cc3)c(C#N)c(N)n2)o1,active: 20.6 µM,–
COc1ccc(C(C(=O)NC2CCCC2)N(C(=O)c2snc(-c3ccc(F)cc3)c2N)c2cccc(F)c2)cc1 (stereo not given),active: 20.6 µM,–
Cc1ccccc1C(=O)NC(=S)NC1CCS(=O)(=O)C1 (stereo not given),inactive,–
CCc1cc2c(SC(C)C(=O)NC3CCCC3)ncnc2s1 (stereo not given),"inconclusive: 29.1 µM [activator, single point]",–
Cc1ccc(C)c(NC(=O)CN(C)C(=O)CSC(C)C(=O)Nc2cc(C)on2)c1 (stereo not given),"inconclusive: 29.1 µM [activator, single point]",–
COc1ccccc1NC(=O)Cn1nnc2sc3c(c2c1=O)CC(C)(C)OC3,–,inconclusive: 46.8% [activator]
O=C(Nc1ccccn1)c1nc(-c2ccccc2)n(-c2ccccc2)n1,inactive,–
COc1ccc(N(CC(=O)NCCC(C)C)C(=O)c2snc(C(=O)NC3CCCCC3)c2N)c(OC)c1,"inconclusive: 14.6 µM [activator, single point]",–

SMILES,Potency,re-replication activation
O=S(=O)(Cc1ncc(C(F)(F)F)cc1Cl)c1ccccc1,"inconclusive: 18.4 µM [activator, single point]",–
Cc1c(C(=O)NCc2ccco2)sc2nc(-c3ccccc3)cn12,"inconclusive: 32.6 µM [activator, partial curve, poor fit]",–
OCCCn1c(C2CCCN2c2nc(-c3ccc(Cl)cc3)cs2)nc2cc(Cl)c(Cl)cc21 (stereo not given),"inconclusive: 18.4 µM [activator, partial curve, poor fit]",–
C/C(=N\NC(=O)C1(C)CC1(Br)Br)c1cccc(NC(=O)C(C)(C)C)c1 (stereo not given),"inconclusive: 29.1 µM [activator, single point]",–
O=C(CSc1ccc(-c2ccccn2)nn1)c1ccc(F)cc1,inactive,–
COc1ccc(NC(=O)CNC(=O)Cn2c(C)cc3ccccc3c2=O)cc1OC,"inconclusive: 4.11 µM [activator, partial curve, poor fit]",–
Cc1ccc(-c2nc(Nc3cccc(C)c3)sc2CC(=O)O)cc1,"inconclusive: 18.4 µM [activator, single point]",–
O=C(NCCCn1ccnc1)c1cccc(Br)c1,active: 25.9 µM,–
O=C(COc1ccc(C(=O)c2ccccc2)cc1)NCC(=O)Nc1ccccc1Br,"inconclusive: 20.6 µM [activator, single point]",–
COc1ccc(Nc2nc(N3CCN(S(C)(=O)=O)CC3)nc3ccccc23)c(OC)c1,–,inactive: 11.1% [at 1.84 µM]
CN(CC(=O)Nc1ccccc1Br)C(=O)c1cccnc1Nc1cccc(C(F)(F)F)c1,"inconclusive: 29.1 µM [activator, single point]",–
COc1ccc(OC)c(NC(=O)c2cc(OC(C)=O)cc(C(=O)Nc3cc(OC)ccc3OC)c2)c1,"inconclusive: 25.9 µM [activator, single point]",–
CC(C)Nc1nc(-c2ccncc2)nc(-c2ccccc2)c1C#N,inactive,–
CCOC(=O)c1c(NC(=O)C2=C(C)NC(=S)NC2c2ccc(F)cc2)sc(C)c1C (stereo not given),"inconclusive: 29.1 µM [activator, partial curve, poor fit]",–
COc1ccc(CC(=O)Nc2ccccc2N2CCCC2)cc1,"inconclusive: 18.4 µM [activator, single point]",–
O=C(CNC(=O)c1ccc(Br)o1)NCc1cccc(Cl)c1,"inconclusive: 29.1 µM [activator, single point]",–
Cc1sc(-c2cccnc2)nc1OC(=O)C1CC1,"inconclusive: 2.91 µM [activator, partial curve, poor fit]",–
Cc1ccc(NS(=O)(=O)c2ccc3c(c2)c(=O)n(C)c(=O)n3C)cc1F,"inconclusive: 23.1 µM [activator, partial curve, poor fit]",–
Cc1ccc2[nH]c3c(N4CCN(Cc5ccccc5)CC4)ncnc3c2c1,"inconclusive: 29.1 µM [activator, partial curve, poor fit]",–
CCOC(=O)c1c(C)[nH]c(C)c1C(=O)COC(=O)/C=C/c1ccc(OC)cc1,active: 16.4 µM,–
Cc1cc2ncc(-c3ccc(Cl)cc3)cn2n1,inactive,–
COc1ccc(Cl)c2sc(N(Cc3cccnc3)C(C)=O)nc12,"inconclusive: 29.1 µM [activator, single point]",–
